According to US20230227838A1, “ENHANCED CELL SURVIVAL AGAINST BIOTIC AND ABIOTIC STRESSES THROUGH SALICYLICK ACID-INDUCED NPR1 CONDENSATES” (priority 2020, published 2023):

B1: AT3G18520 (protein, UniProt Q8GXJ1 1-552, looked up)
Histone deacetylase 15: MVVETIERSCEGSKRRHVNGGDIAVPCSGEECSNGDINVAPGVSAKRARVSREMTFEDIYGADALLNDDDDEDDDCDWEPVQAPMEFVKWCCVNCTMSNPGDMVHCCICGEHKESGILRHGYLASPFFKDTGLIEVEEKYGGSSSATSSTAVGFDERMLLHSEFEVKAQPHPERPDRLRAIAASLATAGVFPGRCLPINAREITKQELQMVHTSEHVDAVDTTSQLLYSYFTSDTYANEYSARAARLAAGLCADLATDIFTGRVKNGFALVRPPGHHAGVRHAMGFCLHNNAAVAALVAQAAGAKKVLIVDWDVHHGNGTQEIFEQNKSVLYISLHRHEGGNFYPGTGAADEVGSNGGEGYCVNVPWSCGGVGDKDYIFAFQHVVLPIASAFSPDFVIISAGFDAARGDPLGCCDVTPAGYSRMTQMLGDLCGGKMLVILEGGYNLRSISASATAVIKVLLGENPENELPIATTPSVAGLQTVLDVLNIQLEFWPSLAISYSKLLSELEARLIENKKNQMKRKVVRVPTWWKWGRKKLLYNFLSARMISRSK
B2: AT3G52430 (protein)
chain: MDDCRFETSELQASVMISTPLFTDSWSSCNTANCNGSIKIHDIAGITYVAIPAVSMIQLGNLVGLPVTGDVLFPGLSSDEPLPMVDAAILKLFLQLKIKEGLELELLGKKLVVITGHSTGGALAAFTALWLLSQSSPPSFRVFCITFGSPLLGNQSLSTSISRSRLAHNFCHVVSIHDLVPRSSNEQFWPFGTYLFCSDKGGVCLDNAGSVRLMFNILNTTATQNTEEHQRYGHYVFTLSHMFLKSRSFLGGSIPDNSYQAGVALAVEALGFSNDDTSGVLVKECIETATRIVRAPILRSAELANELASVLPARLEIQWYKDRCDASEEQLGYYDFFKRYSLKRDFKVNMSRIRLAKFWDTVIKMVETNELPFDFHLGKKWIYASQFYQLLAEPLDIANFYKNRDIKTGGHYLEGNRPKRYEVIDKWQKGVKVPEECVRSRYASTTQDTCFWAKLEQAKEWLDEARKESSDPQRRSLLREKIVPFESYANTLVTKKEVSLDVKAKNSSYSVWEANLKEFKCKMGYENEIEMVVDESDAMET
B3: AT2G14560 (protein, UniProt Q9ZQR8 1-207, looked up)
Protein LURP1: MQQPCVIVGSKYCSPNPVGLAIVRKVMKITDGNFVITSADGKLLFKVKDPLFSLHGKRILLDCSGAKVLTLRGKMMTMHDRWQVFRGGSTEEGALLYTVKRSSMIQLAPKLEVFLANNVEEKICDFKVKGAWLDDSCVVYAGDSDTIIAHMCGKQTMRGFFFGKDHFSVTVDKNVDYAFIASLIVILVEIEKAGFITKMTTQMIIGF
B4: AT1G02450 (protein, UniProt Q9FNZ5 1-142, looked up)
Protein NIM1-INTERACTING 1: MYPKQFSLYNYSLETMSKDENVESKETIRVDKRVREDEEEEEEKKIDTFFKLIKHYQEARKRRREELAENSGVVRRKSNGGERSGIVVPAFQPEDFSQCRTGLKPPLMFVSDHKEENTKVEQEEDQTEERNEDKALDLNLAL
B5: AT5G14250 (protein, UniProt Q8W575 1-429, looked up)
COP9 signalosome complex …: MIGAVNSVEAVITSIQGLSGSPEDLSALHDLLRGAQDSLRAEPGVNFSTLDQLDASKHSLGYLYFLEVLTCGPVSKEKAAYEIPIIARFINSCDAGQIRLASYKFVSLCKILKDHVIALGDPLRGVGPLLNAVQKLQVSSKRLTALHPDVLQLCLQAKSYKSGFSILSDDIVEIDQPRDFFLYSYYGGMICIGLKRFQKALELLYNVVTAPMHQVNAIALEAYKKYILVSLIHNGQFTNTLPKCASTAAQRSFKNYTGPYIELGNCYNDGKIGELEALVVARNAEFEEDKNLGLVKQAVSSLYKRNILRLTQKYLTLSLQDIANMVQLGNAKEAEMHVLQMIQDGQIHALINQKDGMVRFLEDPEQYKSSEMIEIMDSVIQRTIGLSKNLLAMDESLSCDPLYLGKVGRERQRYDFGDDFDTVPQKFSM
B6: AT5G57560 (protein, UniProt Q38857 22-284, looked up)
Xyloglucan …: NFQRDVEITWGDGRGQIKNNGELLTLSLDKSSGSGFQSKNEYLFGKVSMQMKLVPGNSAGTVTTLYLKSPGTTWDEIDFEFLGNSSGEPYTLHTNVYTQGKGDKEQQFKLWFDPTANFHTYTILWNPQRIIFTVDGTPIREFKNMESLGTLFPKNKPMRMYSSLWNADDWATRGGLVKTDWSKAPFTASYRGFQQEACVWSNGKSSCPNASKQGTTTGSWLSQELDSTAQQRMRWVQRNYMIYNYCTDAKRFPQGLPKECLAA
B7: AT4G16950 (protein, UniProt F4JNB7 1-1449, looked up)
Disease resistance protein …: MAASSSSGRRRYDVFPSFSGVDVRKTFLSHLIEALDGKSINTFIDHGIERSRTIAPELISAIREARISIVIFSKNYASSTWCLNELVEIHKCFNDLGQMVIPVFYDVDPSEVRKQTGEFGKVFEKTCEVSKDKQPGDQKQRWVQALTDIANIAGEDLLNGPNEAHMVEKISNDVSNKLITRSKCFDDFVGIEAHIEAIKSVLCLESKEARMVGIWGQSGIGKSTIGRALFSQLSIQFPLRAFLTYKSTSGSDVSGMKLSWEKELLSEILGQKDIKIEHFGVVEQRLKHKKVLILLDDVDNLEFLKTLVGKAEWFGSGSRIIVITQDRQFLKAHDIDLVYEVKLPSQGLALTMLCRSAFGKDSPPDDFKELAFEVAKLAGHLPLGLNVLGSSLRRRGKKEWMEMMPRLRNGLNGDIMKTLRVSYDRLHQKDQDMFLCIACLFNGFEVSYVKDLLEDNVGLTMLSEKSLIRITPDGHIEMHNLLEKLGREIDRAKSKGNPGKRQFLTNFEDIHEVVTEKTGTETLLGIRLPFEEYFSTRPLLIDKESFKGMRNLQYLKIGDWSDGGQPQSLVYLPLKLRLLDWDDCPLKSLPSTFKAEYLVNLIMKYSKLEKLWEGTLPLGSLKKMNLLCSKNLKEIPDLSNARNLEELDLEGCESLVTLPSSIQNAIKLRKLHCSGVILIDLKSLEGMCNLEYLSVDCSRVEGTQGIVYFPSKLRLLLWNNCPLKRLHSNFKVEYLVKLRMENSDLEKLWDGTQPLGRLKQMFLRGSKYLKEIPDLSLAINLEEVDICKCESLVTFPSSMQNAIKLIYLDISDCKKLESFPTDLNLESLEYLNLTGCPNLRNFPAIKMGCSDVDFPEGRNEIVVEDCFWNKNLPAGLDYLDCLMRCMPCEFRPEYLVFLNVRCYKHEKLWEGIQSLGSLEEMDLSESENLTEIPDLSKATNLKHLYLNNCKSLVTLPSTIGNLQKLVRLEMKECTGLEVLPTDVNLSSLETLDLSGCSSLRTFPLISKSIKWLYLENTAIEEILDLSKATKLESLILNNCKSLVTLPSTIGNLQNLRRLYMKRCTGLEVLPTDVNLSSLGILDLSGCSSLRTFPLISTNIVWLYLENTAIGEVPCCIEDFTRLRVLLMYCCQRLKNISPNIFRLRSLMFADFTDCRGVIKALSDATVVATMEDSVSCVPLSENIEYTCERFWGELYGDGDWDLGTEYFSFRNCFKLDRDARELILRSCFKPVALPGGEIPKYFTYRAYGDSLTVTLPRSSLSQSFLRFKACLVVDPLSEGKGFYRYLEVNFGFNGKQYQKSFLEDEELEFCKTDHLFFCSFKFESEMTFNDVEFKFCCSNRIKECGVRLMYVSQETEYNQQTTRSKKRMRMTSGTSEEYINLAGDQIVADTGLAALNMELSLGEGEASSSTSLEGEALSVDYMITKEQDEDIPFLDPVSDGTWRSFYSAE
B8: AT5G45110 (protein)
chain: MATLTEPSSSLSFTSSHFSYGSIGSNHFSSSSASNPEVVSLTKLSSNLEQLLSNSDCDYSDAEIIVDGVPVGVHRCILAARSKFFQDLFKKEKKISKTEKPKYQLREMLPYGAVAHEAFLYFLSYIYTGRLKPFPLEVSTCVDPVCSHDCCRPAIDFVVQLMYASSVLQVPELVSSFQRRLCNFVEKTLVENVLPILMVAFNCKLTQLLDQCIERVARSDLYRFCIEKEVPPEVAEKIKQLRLISPQDEETSPKISEKLLERIGKILKALDSDDVELVKLLLTESDITLDQANGLHYSVVYSDPKVVAEILALDMGDVNYRNSRGYTVLHFAAMRREPSIIISLIDKGANASEFTSDGRSAVNILRRLTNPKDYHTKTAKGRESSKARLCIDILEREIRKNPMVLDTPMCSISMPEDLQMRLLYLEKRVGLAQLFFPTEAKVAMDIGNVEGTSEFTGLSPPSSGLTGNLSQVDLNETPHMQTQRLLTRMVALMKTVETGRRFFPYGSEVLDKYMAEYIDDDILDDFHFEKGSTHERRLKRMRYRELKDDVQKAYSKDKESKIARSCLSASSSPSSSSIRDDLHNTT
B9: AT2G24850 (protein, UniProt Q9SK47 1-445, looked up)
Probable aminotransferase TAT3: MASNGVTNCNANANVWRFKGNGATSDAAAVTLRKLAFGMFKNCTMNSGKTILFPTPGEPSAHSNFRTCPEAEEAVAAAARSGMANSYAPSPGVFKARRAVAEYLNGELPTKLKAEDVYITGGCNQAIEIVIDSLAGNPSANILLPRPGYPHYDARAVYSGLEIRKYDLLPESDWEINLDGLEAAADENTVAMVIINPNNPCGNVYTYDHLNKVAEMARKLGIMIISDEVYDHVVYGDKPFIPMGKFASIAPVITLGSISKGWVNPGWRVGWIAMNDPNGIFVSTGVVQAIEDFLDLTPQPSFILQEALPDILEKTPKEFFEKKIKAMRRNVELSCERLKDIPCLFCPKKPESCSYLWLKLDTSMLNNIKNDFDFCTKLVSEESLILIPGVALGAENWVRISIGTDESVVQEIFDRLKGFYDRHAISKEAIKLSGHAINQIVVSVN
B10: AT2G29570 (protein, UniProt Q9ZW35 1-264, looked up)
Proliferating cell nuclear …: MLELRLVQGSLLKKVLEAVKDLVNDANFDCSTTGFSLQAMDSSHVALVSLLLRSEGFEHYRCDRNLSMGMNLGNMSKMLKCAGNDDIITIKADDGSDTVTFMFESPTQDKIADFEMKLMDIDSEHLGIPDAEYHSIVRMPSGEFSRICKDLSSIGDTVVISVTKEGVKFSTAGDIGTANIVLRQNTTVDKPEDAIVIEMNEPVSLSFALRYMNSFTKATPLSETVTISLSSELPVVVEYKVAEMGYIRYYLAPKIEEEEDTKPE
B11: AT2G14610 (protein)
chain: QDSPQDYLRVHNQARGAVGVGPMQWDERVAAYARSYAEQLRGNCRLIHSGGPYGENLAWGSGDLSGVSAVNMWVSEKANYNYAANTCNGVCGHYTQVVWRKSVRLGCAKVRCNNGGTIISCNYDPRGNYVNEKPY
B12: AT1G02930 (protein)
chain: MAGIKVFGHPASTATRRVLIALHEKNVDFEFVHVELKDGEHKKEPFILRNPFGKVPAFEDGDFKIFESRAITQYIAHEFSDKGNNLLSTGKDMAIIAMGIEIESHEFDPVGSKLVWEQVLKPLYGMTTDKTVVEEEEAKLAKVLDVYEHRLGESKYLASDHFTLVDLHTIPVIQYLLGTPTKKLFDERPHVSAWVADITSRPSAQKVL

Tested on: sim3-GFP
Experiment: Quantitative LC-MS/MS of sim3-GFP interactome (SINC components)
Design: species or system Arabidopsis thaliana
Conditions: protein enrichment in the sim3-GFP interactome (SINC components), SA-treated samples versus mock

Row | Molecule | Normalized Fold Change: SA vs Mock
1 | B1 | 2572.7625
2 | B2 | 3.228
3 | B3 | 4.63
4 | B4 | 17.72
5 | B5 | 2.754
6 | B6 | 102.4
7 | B7 | 3.792
8 | B8 | 9.396
9 | B9 | 18.45
10 | B10 | 2.831
11 | B11 | 3.648
12 | B12 | 2.009
